For test [1], the system named is Human fetal astrocytes. Description: loss of total cells relative to no-compound high-control median (toxicity); higher = more toxic (fewer cells). The note with it: 24 h.
Test [2] relates to Human fetal astrocytes. Description: synaptosome phagocytosis (pHrodo/calcein intensity ratio) relative to plate median of data wells; higher = more phagocytosis. The settings on record: 24 h.

Structures can show the parent of a compound that is named as a salt. The list shows a part of the results. Repeats are few or missing, and single values can be far off.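 Primary human fetal astrocytes engulfed labelled rat cortical synaptosomes, measured as a red/green ratio corrected for calcein live-cell signal and scaled to the plate median. Toxicity meant calcein falling over 30%; decreased phagocytosis meant below 70% of median above 5 µM.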

Turning to `CC(C)NCC(O)c1ccc(NS(C)(=O)=O)cc1` (racemic) [(±)-Sotalol hydrochloride], the “loss of total cells” value with Human fetal astrocytes [1] (1.39 µM) is -2.8%; in the test with Human fetal astrocytes [1] (2.78 µM) it was -11.7%; with Human fetal astrocytes [1] (5.56 µM) it was -1.1%; in the test with Human fetal astrocytes [1] (11.11 µM) it was 6.5%; with Human fetal astrocytes [1] (22.22 µM), -10.7%. Also, the synaptosome phagocytosis in the test on Human fetal astrocytes [2] (1.39 µM) was 104%; with Human fetal astrocytes [2] (2.78 µM), 107%; in the test on Human fetal astrocytes [2] (5.56 µM), 97.8%; in the test on Human fetal astrocytes [2] (11.11 µM), 92.1%; in the test with Human fetal astrocytes [2] (22.22 µM) it was 93.3%.

Regarding `CCN1/C(=C/C(C)=O)Sc2ccc(OC)cc21`, the “loss of total cells” value in the test on Human fetal astrocytes [1] (1.39 µM) was found to be 7.1%; with Human fetal astrocytes [1] (2.78 µM), 12.2%; in the test with Human fetal astrocytes [1] (5.56 µM), 18.3%; with Human fetal astrocytes [1] (11.11 µM), 1%; with Human fetal astrocytes [1] (22.22 µM) it was 13.1%. Moreover, the synaptosome phagocytosis in the test on Human fetal astrocytes [2] (1.39 µM) is 86.4%; with Human fetal astrocytes [2] (2.78 µM) it was 103%; in the test with Human fetal astrocytes [2] (5.56 µM) it was 93.5%; with Human fetal astrocytes [2] (11.11 µM), 114%; in the test with Human fetal astrocytes [2] (22.22 µM), 134%.

With `C[N+](C)(C)CC=O` [Betaine aldehyde chloride], the “loss of total cells” value in the test with Human fetal astrocytes [1] (1.39 µM) was -7.3%; with Human fetal astrocytes [1] (2.78 µM), -11.7%; in the test with Human fetal astrocytes [1] (5.56 µM) it was -15.2%; in the test on Human fetal astrocytes [1] (11.11 µM) it was 3.1%; in the test with Human fetal astrocytes [1] (22.22 µM), -13.9%. In addition, the synaptosome phagocytosis is 114% in the test on Human fetal astrocytes [2] (1.39 µM); 106% in the test with Human fetal astrocytes [2] (2.78 µM); 106% with Human fetal astrocytes [2] (5.56 µM); 119% with Human fetal astrocytes [2] (11.11 µM); 94.4% in the test on Human fetal astrocytes [2] (22.22 µM).

On to `CC[C@]1(O)C[C@H]2CN(CCc3c([nH]c4ccccc34)[C@@](C(=O)OC)(c3cc4c(cc3OC)N(C=O)[C@H]3[C@@](O)(C(=O)OC)[C@H](OC(C)=O)[C@]5(CC)C=CCN6CC[C@]43[C@@H]65)C2)C1` [Vincristine sulfate], for which the “loss of total cells” value in the test with Human fetal astrocytes [1] (1.39 µM) was determined as 7.8%; with Human fetal astrocytes [1] (2.78 µM), 0.3%; in the test with Human fetal astrocytes [1] (5.56 µM) it was 29.2%; with Human fetal astrocytes [1] (11.11 µM) it was 23.4%; in the test on Human fetal astrocytes [1] (22.22 µM), 7.4%. For the same compound, the synaptosome phagocytosis in the test with Human fetal astrocytes [2] (1.39 µM) was 115%; with Human fetal astrocytes [2] (2.78 µM) it was 102%; with Human fetal astrocytes [2] (5.56 µM), 98.8%; in the test on Human fetal astrocytes [2] (11.11 µM), 107%; in the test on Human fetal astrocytes [2] (22.22 µM), 99.2%.

Take `Oc1ccccc1O` [Pyrocatechol]: the “loss of total cells” value with Human fetal astrocytes [1] (1.39 µM) is -18%; in the test on Human fetal astrocytes [1] (2.78 µM), -6.9%; in the test with Human fetal astrocytes [1] (5.56 µM) it was -9.7%; in the test on Human fetal astrocytes [1] (11.11 µM), -18.4%; in the test on Human fetal astrocytes [1] (22.22 µM), 18.4%. For the same compound, the synaptosome phagocytosis was 89.1% in the test on Human fetal astrocytes [2] (1.39 µM); 81.6% in the test on Human fetal astrocytes [2] (2.78 µM); 76.8% in the test with Human fetal astrocytes [2] (5.56 µM); 89.7% in the test with Human fetal astrocytes [2] (11.11 µM); 81.7% with Human fetal astrocytes [2] (22.22 µM).

Turning to `Cc1cc2c(cc1Cl)N(C(=O)Nc1cccc3ncccc13)CC2`, the “loss of total cells” value is -2.4% in the test with Human fetal astrocytes [1] (1.39 µM); -3.2% in the test with Human fetal astrocytes [1] (2.78 µM); -2.3% with Human fetal astrocytes [1] (5.56 µM); 4.8% with Human fetal astrocytes [1] (11.11 µM); 15.9% with Human fetal astrocytes [1] (22.22 µM). Also, the synaptosome phagocytosis was 77.2% with Human fetal astrocytes [2] (1.39 µM); 114% with Human fetal astrocytes [2] (2.78 µM); 117% with Human fetal astrocytes [2] (5.56 µM); 94.7% in the test with Human fetal astrocytes [2] (11.11 µM); 112% in the test with Human fetal astrocytes [2] (22.22 µM).

For `O=C1N(c2ccccc2)c2ccccc2C1(Cc1ccncc1)Cc1ccncc1` [Linopirdine], the “loss of total cells” value is 1.4% in the test with Human fetal astrocytes [1] (1.39 µM); 14% with Human fetal astrocytes [1] (2.78 µM); 5.2% in the test with Human fetal astrocytes [1] (5.56 µM); 23.8% in the test on Human fetal astrocytes [1] (11.11 µM); 1.9% in the test on Human fetal astrocytes [1] (22.22 µM). The synaptosome phagocytosis with Human fetal astrocytes [2] (1.39 µM) was 98.6%; with Human fetal astrocytes [2] (2.78 µM), 137%; in the test with Human fetal astrocytes [2] (5.56 µM) it was 85.4%; in the test with Human fetal astrocytes [2] (11.11 µM) it was 104%; with Human fetal astrocytes [2] (22.22 µM), 96.1%.

Regarding `COc1ccc2c(c1)c(CC(=O)N1CCOCC1)c(C)n2C(=O)c1ccc(Cl)cc1` [Indomethacin morpholinylamide], the “loss of total cells” value in the test on Human fetal astrocytes [1] (1.39 µM) was found to be 0.5%; with Human fetal astrocytes [1] (2.78 µM), 12.2%; in the test with Human fetal astrocytes [1] (5.56 µM), 15.5%; in the test on Human fetal astrocytes [1] (11.11 µM), 22.9%; with Human fetal astrocytes [1] (22.22 µM) it was 12.1%. For the same compound, the synaptosome phagocytosis in the test on Human fetal astrocytes [2] (1.39 µM) is 98.7%; with Human fetal astrocytes [2] (2.78 µM), 104%; in the test on Human fetal astrocytes [2] (5.56 µM), 118%; in the test on Human fetal astrocytes [2] (11.11 µM) it was 138%; in the test on Human fetal astrocytes [2] (22.22 µM), 102%.

The record behind these values is the supplement of paper PMC10689618.
